# The list shows a part of the results. Residues, ends and D or L forms follow the SMILES beside them. *: point of attachment. Cbz = O=C(OCc1ccccc1)*
# The chains behind the UniProt entries cited, without tags or fusion partners. Where a name states a change or a piece, a line headed by the entry shows the natural chain unless it says otherwise.
# UniProt Q2TBE0: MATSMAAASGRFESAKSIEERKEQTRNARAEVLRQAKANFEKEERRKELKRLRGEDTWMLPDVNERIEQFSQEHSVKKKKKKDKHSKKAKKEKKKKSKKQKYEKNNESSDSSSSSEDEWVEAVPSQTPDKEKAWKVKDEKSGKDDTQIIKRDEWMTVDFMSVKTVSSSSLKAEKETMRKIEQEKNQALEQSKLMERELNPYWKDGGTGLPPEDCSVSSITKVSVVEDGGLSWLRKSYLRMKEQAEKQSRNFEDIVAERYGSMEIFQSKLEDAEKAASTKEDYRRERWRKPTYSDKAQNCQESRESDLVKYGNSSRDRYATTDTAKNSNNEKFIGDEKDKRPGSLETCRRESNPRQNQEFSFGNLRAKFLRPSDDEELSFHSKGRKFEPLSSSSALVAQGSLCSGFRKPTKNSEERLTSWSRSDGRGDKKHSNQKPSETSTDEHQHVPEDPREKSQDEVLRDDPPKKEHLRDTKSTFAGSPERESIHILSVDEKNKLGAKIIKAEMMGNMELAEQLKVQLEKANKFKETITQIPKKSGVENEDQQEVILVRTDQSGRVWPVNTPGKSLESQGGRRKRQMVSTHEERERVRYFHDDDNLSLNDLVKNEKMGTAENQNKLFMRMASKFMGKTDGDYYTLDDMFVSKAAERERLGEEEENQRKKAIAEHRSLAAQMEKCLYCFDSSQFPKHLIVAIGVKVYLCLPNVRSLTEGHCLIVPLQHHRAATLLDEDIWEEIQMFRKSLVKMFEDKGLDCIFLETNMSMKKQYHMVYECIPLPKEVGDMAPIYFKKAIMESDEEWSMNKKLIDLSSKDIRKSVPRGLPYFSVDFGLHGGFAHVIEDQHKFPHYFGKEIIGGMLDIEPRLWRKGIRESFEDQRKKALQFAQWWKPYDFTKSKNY
# UniProt Q58WW2: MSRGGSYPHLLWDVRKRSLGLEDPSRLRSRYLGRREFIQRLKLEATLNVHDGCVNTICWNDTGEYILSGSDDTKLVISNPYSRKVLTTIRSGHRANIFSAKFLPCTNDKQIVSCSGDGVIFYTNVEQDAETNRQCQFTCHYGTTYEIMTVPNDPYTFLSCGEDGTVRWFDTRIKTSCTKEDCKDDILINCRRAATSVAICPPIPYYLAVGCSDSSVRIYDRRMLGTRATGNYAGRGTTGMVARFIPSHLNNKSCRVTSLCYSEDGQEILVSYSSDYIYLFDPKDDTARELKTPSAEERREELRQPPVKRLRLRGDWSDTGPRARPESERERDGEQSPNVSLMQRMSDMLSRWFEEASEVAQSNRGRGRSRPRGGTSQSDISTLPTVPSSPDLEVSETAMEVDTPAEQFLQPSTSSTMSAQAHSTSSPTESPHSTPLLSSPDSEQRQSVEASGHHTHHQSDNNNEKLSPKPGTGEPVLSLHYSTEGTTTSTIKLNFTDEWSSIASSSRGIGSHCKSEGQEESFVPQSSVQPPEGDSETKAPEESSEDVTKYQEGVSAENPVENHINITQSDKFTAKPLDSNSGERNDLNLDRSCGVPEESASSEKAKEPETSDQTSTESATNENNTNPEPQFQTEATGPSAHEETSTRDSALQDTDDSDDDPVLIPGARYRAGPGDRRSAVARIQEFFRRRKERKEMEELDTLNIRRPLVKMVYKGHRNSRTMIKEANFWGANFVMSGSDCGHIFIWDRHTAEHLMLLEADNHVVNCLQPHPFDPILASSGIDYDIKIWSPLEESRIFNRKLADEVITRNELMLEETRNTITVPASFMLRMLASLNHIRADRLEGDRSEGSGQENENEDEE
# UniProt Q7L576: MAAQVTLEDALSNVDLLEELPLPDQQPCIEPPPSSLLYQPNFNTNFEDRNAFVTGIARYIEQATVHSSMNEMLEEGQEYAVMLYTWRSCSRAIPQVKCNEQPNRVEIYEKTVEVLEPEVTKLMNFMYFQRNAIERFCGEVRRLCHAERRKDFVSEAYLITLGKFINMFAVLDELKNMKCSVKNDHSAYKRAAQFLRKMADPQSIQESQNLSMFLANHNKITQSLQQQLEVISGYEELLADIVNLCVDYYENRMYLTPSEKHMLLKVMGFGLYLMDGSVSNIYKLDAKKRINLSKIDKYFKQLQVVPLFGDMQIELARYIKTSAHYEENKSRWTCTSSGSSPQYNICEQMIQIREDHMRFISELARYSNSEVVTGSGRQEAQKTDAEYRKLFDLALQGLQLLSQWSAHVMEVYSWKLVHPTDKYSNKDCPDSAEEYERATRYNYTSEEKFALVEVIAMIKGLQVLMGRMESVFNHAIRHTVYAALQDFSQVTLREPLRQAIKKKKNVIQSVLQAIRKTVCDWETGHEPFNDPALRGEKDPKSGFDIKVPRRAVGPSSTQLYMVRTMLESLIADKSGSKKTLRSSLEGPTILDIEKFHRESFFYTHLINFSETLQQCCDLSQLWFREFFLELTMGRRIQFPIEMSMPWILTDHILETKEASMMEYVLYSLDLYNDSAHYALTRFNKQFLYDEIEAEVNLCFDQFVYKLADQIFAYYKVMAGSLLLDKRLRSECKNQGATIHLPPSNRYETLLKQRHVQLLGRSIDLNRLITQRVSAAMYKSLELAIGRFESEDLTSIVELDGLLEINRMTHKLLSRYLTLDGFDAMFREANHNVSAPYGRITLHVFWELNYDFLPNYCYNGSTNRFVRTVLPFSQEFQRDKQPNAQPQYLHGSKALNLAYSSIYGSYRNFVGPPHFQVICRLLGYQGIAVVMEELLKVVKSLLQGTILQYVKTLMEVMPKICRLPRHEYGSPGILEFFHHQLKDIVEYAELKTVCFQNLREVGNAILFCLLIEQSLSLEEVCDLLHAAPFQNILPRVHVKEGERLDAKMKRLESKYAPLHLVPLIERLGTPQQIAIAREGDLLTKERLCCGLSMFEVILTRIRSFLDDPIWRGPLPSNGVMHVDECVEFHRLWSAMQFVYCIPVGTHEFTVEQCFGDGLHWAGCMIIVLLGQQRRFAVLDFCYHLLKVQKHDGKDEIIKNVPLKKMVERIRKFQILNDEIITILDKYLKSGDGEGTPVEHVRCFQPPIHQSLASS
# UniProt Q99418: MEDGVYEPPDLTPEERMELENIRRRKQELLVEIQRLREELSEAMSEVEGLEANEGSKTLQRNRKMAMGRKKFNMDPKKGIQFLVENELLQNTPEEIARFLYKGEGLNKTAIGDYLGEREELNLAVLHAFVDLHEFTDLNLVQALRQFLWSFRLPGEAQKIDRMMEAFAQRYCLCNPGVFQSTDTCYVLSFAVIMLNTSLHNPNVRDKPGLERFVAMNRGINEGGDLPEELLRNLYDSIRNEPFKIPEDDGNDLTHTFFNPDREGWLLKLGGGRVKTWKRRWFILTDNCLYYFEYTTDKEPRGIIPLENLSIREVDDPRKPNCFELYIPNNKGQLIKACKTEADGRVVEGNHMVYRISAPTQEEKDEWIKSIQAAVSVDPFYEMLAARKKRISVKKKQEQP
# UniProt P13498: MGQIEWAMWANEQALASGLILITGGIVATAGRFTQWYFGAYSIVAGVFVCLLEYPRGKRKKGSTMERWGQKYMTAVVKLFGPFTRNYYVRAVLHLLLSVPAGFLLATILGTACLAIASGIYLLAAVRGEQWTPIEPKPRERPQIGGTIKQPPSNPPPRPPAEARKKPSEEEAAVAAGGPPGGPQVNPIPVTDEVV
# UniProt Q5QP82: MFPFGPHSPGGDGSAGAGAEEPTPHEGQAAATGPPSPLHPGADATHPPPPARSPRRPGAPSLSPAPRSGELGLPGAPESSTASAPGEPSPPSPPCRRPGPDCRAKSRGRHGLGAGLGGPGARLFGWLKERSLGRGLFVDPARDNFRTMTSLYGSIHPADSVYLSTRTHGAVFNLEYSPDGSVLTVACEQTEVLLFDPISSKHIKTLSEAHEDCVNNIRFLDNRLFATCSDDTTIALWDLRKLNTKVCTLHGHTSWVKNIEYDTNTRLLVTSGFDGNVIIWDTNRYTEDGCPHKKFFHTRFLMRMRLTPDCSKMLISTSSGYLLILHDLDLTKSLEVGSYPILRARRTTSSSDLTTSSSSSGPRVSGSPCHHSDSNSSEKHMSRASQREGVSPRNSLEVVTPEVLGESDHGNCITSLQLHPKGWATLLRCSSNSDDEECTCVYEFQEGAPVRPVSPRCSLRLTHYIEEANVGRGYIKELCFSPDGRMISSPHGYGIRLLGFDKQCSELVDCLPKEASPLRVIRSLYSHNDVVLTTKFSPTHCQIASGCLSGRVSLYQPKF
# UniProt P33240: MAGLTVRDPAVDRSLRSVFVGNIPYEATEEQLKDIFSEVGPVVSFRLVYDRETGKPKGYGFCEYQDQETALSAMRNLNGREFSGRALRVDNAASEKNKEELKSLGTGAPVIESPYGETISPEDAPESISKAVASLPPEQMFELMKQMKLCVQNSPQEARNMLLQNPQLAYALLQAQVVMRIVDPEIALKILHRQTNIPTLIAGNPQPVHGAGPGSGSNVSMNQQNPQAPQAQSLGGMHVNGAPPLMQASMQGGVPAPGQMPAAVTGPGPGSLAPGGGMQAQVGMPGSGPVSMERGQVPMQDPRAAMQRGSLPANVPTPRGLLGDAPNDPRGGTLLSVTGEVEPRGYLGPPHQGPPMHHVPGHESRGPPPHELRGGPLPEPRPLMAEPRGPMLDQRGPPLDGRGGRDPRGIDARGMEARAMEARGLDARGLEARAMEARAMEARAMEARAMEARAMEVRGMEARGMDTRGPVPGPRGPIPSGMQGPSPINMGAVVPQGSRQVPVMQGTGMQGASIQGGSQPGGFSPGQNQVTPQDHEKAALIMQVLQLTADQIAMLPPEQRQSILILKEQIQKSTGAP
# UniProt Q9H1C7: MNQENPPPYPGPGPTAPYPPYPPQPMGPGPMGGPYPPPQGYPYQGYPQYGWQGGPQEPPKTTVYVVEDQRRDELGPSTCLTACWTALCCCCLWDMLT
# UniProt P50461: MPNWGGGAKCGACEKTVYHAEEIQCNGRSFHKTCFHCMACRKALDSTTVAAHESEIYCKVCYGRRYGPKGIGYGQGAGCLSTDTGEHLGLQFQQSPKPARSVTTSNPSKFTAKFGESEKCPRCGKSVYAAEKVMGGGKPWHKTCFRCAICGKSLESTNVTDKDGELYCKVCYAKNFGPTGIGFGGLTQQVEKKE
# UniProt Q13948: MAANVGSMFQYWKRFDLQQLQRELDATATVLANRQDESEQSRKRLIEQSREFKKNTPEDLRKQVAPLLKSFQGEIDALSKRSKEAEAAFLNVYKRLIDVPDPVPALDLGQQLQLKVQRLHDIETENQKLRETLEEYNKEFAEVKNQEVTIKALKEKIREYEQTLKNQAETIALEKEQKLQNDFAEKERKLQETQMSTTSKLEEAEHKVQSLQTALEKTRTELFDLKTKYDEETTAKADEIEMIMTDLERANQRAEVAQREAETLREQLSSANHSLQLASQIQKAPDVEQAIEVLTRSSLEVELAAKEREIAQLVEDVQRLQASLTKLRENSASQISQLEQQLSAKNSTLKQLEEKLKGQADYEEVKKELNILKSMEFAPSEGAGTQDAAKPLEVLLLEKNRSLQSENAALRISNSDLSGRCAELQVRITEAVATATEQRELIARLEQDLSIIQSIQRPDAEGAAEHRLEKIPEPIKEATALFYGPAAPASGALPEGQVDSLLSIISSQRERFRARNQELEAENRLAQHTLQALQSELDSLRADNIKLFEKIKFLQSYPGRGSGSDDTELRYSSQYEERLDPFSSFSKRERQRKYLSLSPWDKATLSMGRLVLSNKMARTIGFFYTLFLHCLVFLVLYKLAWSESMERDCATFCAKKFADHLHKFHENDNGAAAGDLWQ
# UniProt P53634: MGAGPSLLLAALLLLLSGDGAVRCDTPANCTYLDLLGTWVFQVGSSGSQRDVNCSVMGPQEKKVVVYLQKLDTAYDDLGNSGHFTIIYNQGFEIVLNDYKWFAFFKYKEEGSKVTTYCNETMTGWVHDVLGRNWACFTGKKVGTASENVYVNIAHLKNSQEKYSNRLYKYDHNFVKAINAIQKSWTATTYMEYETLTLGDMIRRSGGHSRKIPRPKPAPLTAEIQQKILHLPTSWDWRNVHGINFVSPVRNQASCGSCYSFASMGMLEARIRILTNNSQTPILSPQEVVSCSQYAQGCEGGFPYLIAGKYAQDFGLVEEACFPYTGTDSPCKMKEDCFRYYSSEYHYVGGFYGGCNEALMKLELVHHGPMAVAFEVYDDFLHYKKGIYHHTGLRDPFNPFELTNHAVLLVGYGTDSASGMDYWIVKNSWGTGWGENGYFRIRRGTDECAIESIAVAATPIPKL
# UniProt Q9BTE1, whole entry, looked up: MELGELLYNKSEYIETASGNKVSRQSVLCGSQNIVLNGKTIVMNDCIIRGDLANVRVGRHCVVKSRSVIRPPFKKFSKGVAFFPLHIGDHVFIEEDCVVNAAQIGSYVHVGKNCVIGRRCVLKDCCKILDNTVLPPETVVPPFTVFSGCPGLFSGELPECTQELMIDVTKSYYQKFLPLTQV
# UniProt O60888: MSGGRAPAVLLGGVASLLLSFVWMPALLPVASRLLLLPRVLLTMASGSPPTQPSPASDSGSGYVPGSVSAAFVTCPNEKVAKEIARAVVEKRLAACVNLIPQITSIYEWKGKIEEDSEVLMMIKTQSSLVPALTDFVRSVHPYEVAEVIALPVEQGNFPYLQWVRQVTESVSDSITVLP
# Tests used:
# Assay in all cases: log2 fold change, soluble protein after heating vs DMSO (PISA); higher = thermal stabilisation; K562 cells, 10 uM, 30 min; active = over 0.2 and 3.5 SD of the protein, either way, in both replicates (recomputed)
# erlotinib = compound: C#Cc1cccc(Nc2ncnc3cc(OCCOC)c(OCCOC)cc23)c1 [erlotinib]
# How it was run: (§1)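 Soluble protein was quantified by TMTpro 16plex LC-MS/MS after channel sums were equalised. It was obtained as the supernatant after 21,000xg for 90 min from pooled aliquots of K562 cells (2×10^6 cells/mL, 10 μM compound, 30 min) heated for 3 min across 48°C-58°C and extracted in PBS with 0.5% NP-40 at 4°C. Thermal stability values are relative to control samples and come from duplicates. They are given as log2 fold changes.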
# [1] = compound: C/C(=N\NC(=O)C1=CC(=CC=C1)S(=O)(=O)N2CCOCC2)/C3=C(C=CC(=C3)Cl)O
# How it was run: as §1
# [2] = compound: C1=CC(=CC=C1C2=NC3=C(N2)C=C(C=C3)C(=O)N)OC4=CC=C(C=C4)Cl
# How it was run: as §1
# [3] = compound: C1=CC2=C(C=CC(=C2)/C=C\3/C(=O)NC(=NCC4=CC=CS4)S3)N=C1
# How it was run: as §1
# [4] = compound: C1=CC=C(C=C1)C2=NC(=C(N2)C3=CC=NC=C3)C4=CC(=C(C=C4)Cl)O
# How it was run: as §1
# [5] = compound: C1=CC=C2C(=C1)C3=NNC4=CC=CC(=C43)C2=O
# How it was run: as §1
# [6] = compound: C1CCN(C1)C(=O)NC2=CC=CC(=C2)NC3=NC=C(C(=N3)NCCC4=CN=CN4)Br
# How it was run: as §1
# [7] = compound: C1CN(CCC1(CC2=CC=C(C=C2)Cl)N)C3=NC=NC4=C3C=CN4
# How it was run: as §1
# IRAK-1-4 Inhibitor I = compound: C1COCCN1CCN2C3=CC=CC=C3N=C2NC(=O)C4=CC(=CC=C4)[N+](=O)[O-] [IRAK-1-4 Inhibitor I]
# How it was run: as §1
# [8] = compound: CC(=O)c1cnc2ccc(-c3cc(Cl)c(O)c(Cl)c3)nc2c1N[C@H]1CC[C@H](CN(C)C)CC1
# How it was run: as §1
# ralimetinib = compound: CC(C)(C)Cn1c(N)nc2ccc(-c3[nH]c(C(C)(C)C)nc3-c3ccc(F)cc3)nc21 [ralimetinib]
# How it was run: as §1
# [9] = compound: CC(C)C1=C2N=C(C=C(N2N=C1)NCC3=CC=CC=C3)NCCCCCCN
# How it was run: as §1
# [10] = compound: CC(C)C[C@@H](C=O)NC(=O)[C@H](CC(C)C)NC(=O)[C@H](CC(C)C)NC(=O)OCc1ccccc1
# How it was run: as §1
# pinometostat = compound: CC(C)N(C[C@H]1O[C@@H](n2cnc3c(N)ncnc32)[C@H](O)[C@@H]1O)[C@H]1C[C@@H](CCc2nc3cc(C(C)(C)C)ccc3[nH]2)C1 [pinometostat]
# How it was run: as §1
# [11] = compound: CC1=C(C2=C(C=C1)C(=O)C3=CC=CC=C3N2CCCN)C
# How it was run: as §1
# [12] = compound: C1=CC(=C(C=C1Cl)C2=NC3=NC=CN=C3C(=N2)NC4=CC=NC=C4)F
# How it was run: as §1
# [13] = compound: C1=CC2=NC=CN=C2C=C1/C=C/3\C(=O)NC(=O)S3
# How it was run: as §1
# ibrutinib = compound: C=CC(=O)N1CCC[C@@H](n2nc(-c3ccc(Oc4ccccc4)cc3)c3c(N)ncnc32)C1 [ibrutinib]
# How it was run: as §1
# [14] = compound: CC(C)(O)CC(=O)NCCn1ccc2ncnc(Nc3ccc(Oc4cccc(C(F)(F)F)c4)c(Cl)c3)c21
# How it was run: as §1
# [15] = compound: CC1=C(C(CC(=O)N1)C2=CC=C(C=C2)C(F)(F)F)C(=O)NC3=C(C=C4C(=C3)C=NN4)F
# How it was run: as §1
Target,log2 fold change (erlotinib),log2 fold change [1],log2 fold change [2],log2 fold change [3],log2 fold change [4],log2 fold change [5],log2 fold change [6],log2 fold change [7],log2 fold change (IRAK-1-4 Inhibitor I),log2 fold change [8],log2 fold change (ralimetinib),log2 fold change [9],log2 fold change [10],log2 fold change (pinometostat),log2 fold change [11],log2 fold change [12],log2 fold change [13],log2 fold change (ibrutinib),log2 fold change [14],log2 fold change [15]
CWF19L2 (UniProt Q2TBE0),inactive: 0.004,inactive: 0.056,inactive: 0.038,inactive: 0.03,inactive: -0.132,inactive: -0.014,inactive: 0.017,inactive: -0.04,inactive: 0.029,inactive: -0.075,inactive: 0.014,inactive: 0.184,inactive: 0.02,inactive: 0.098,inactive: 0.106,,,,,
DCAF6 isoform 3 (UniProt Q58WW2),inactive: 0.035,inactive: 0,inactive: 0.014,inactive: 0.007,inactive: 0.008,inactive: -0.036,inactive: 0.042,inactive: 0.055,inactive: 0.025,inactive: -0.018,inactive: -0.022,inactive: 0.056,inactive: 0.023,inactive: -0.004,inactive: -0.034,inactive: 0.035,inactive: 0.045,inactive: -0.004,inactive: -0.022,
CYFIP1 (UniProt Q7L576),inactive: -0.016,inactive: 0.066,inactive: 0.018,inactive: 0.002,inactive: 0.003,inactive: -0.016,inactive: 0.005,inactive: 0.059,inactive: -0.001,inactive: -0.07,inactive: -0.013,inactive: -0.042,inactive: -0.013,inactive: 0.001,inactive: 0.026,inactive: 0.07,inactive: 0.026,inactive: -0.019,inactive: -0.056,
CYTH2 (UniProt Q99418),inactive: 0.014,inactive: 0.195,inactive: 0.005,inactive: 0.224,,inactive: -0.021,inactive: 0.052,inactive: -0.308,inactive: -0.085,inactive: -0.093,,inactive: 0.03,,inactive: 0.138,inactive: -0.139,,inactive: -0.017,inactive: -0.047,,
DBNL isoform 3 (UniProt Q9UJU6),inactive: 0.06,inactive: 0.024,inactive: -0.063,inactive: -0.012,inactive: -0.008,inactive: -0.004,inactive: -0.084,inactive: -0.066,inactive: -0.075,inactive: 0.006,inactive: -0.015,inactive: -0.136,inactive: -0.007,inactive: -0.044,inactive: -0.066,inactive: 0.034,inactive: 0.146,inactive: -0.122,inactive: -0.132,
CYBA (UniProt P13498),inactive: -0.075,inactive: 0.096,inactive: 0.025,inactive: 0.042,inactive: 0.03,inactive: -0.072,inactive: -0.012,inactive: -0.005,inactive: 0.044,inactive: -0.024,inactive: -0.041,active: -0.43,inactive: 0.121,inactive: -0.036,inactive: -0.026,inactive: -0.005,inactive: 0.032,inactive: 0.024,inactive: -0.152,
CWC27 (UniProt Q6UX04),inactive: 0.084,inactive: -0.023,inactive: -0.049,inactive: 0.021,inactive: 0.041,inactive: -0.102,inactive: -0.086,inactive: -0.053,inactive: -0.045,inactive: -0.133,inactive: 0.048,inactive: 0.018,inactive: -0.007,inactive: -0.023,inactive: 0.199,inactive: 0.055,inactive: 0.02,inactive: -0.111,inactive: -0.08,
DCAF10 (UniProt Q5QP82),inactive: 0.01,inactive: 0.014,inactive: 0.029,inactive: -0.038,inactive: -0.077,inactive: -0.013,inactive: 0.029,inactive: 0.006,inactive: 0,inactive: -0.006,inactive: -0.082,inactive: 0.02,inactive: 0.026,inactive: -0.016,inactive: 0.01,inactive: 0.021,inactive: 0.064,inactive: 0,inactive: -0.041,
CSTF2 (UniProt P33240),inactive: 0.032,inactive: -0.002,inactive: 0.017,inactive: 0.017,inactive: -0.076,inactive: 0.023,inactive: 0.033,inactive: -0.061,inactive: 0.011,inactive: 0.057,inactive: -0.006,inactive: 0.093,inactive: -0.006,inactive: -0.008,inactive: 0.169,inactive: -0.011,inactive: 0.051,inactive: 0.008,inactive: 0.025,
CYSTM1 (UniProt Q9H1C7),inactive: 0.037,inactive: -0.064,inactive: 0.001,inactive: -0.197,inactive: -0.033,inactive: -0.078,inactive: -0.117,inactive: 0.074,inactive: 0.039,inactive: -0.037,inactive: -0.003,inactive: -0.227,inactive: -0.046,inactive: -0.032,inactive: -0.102,,inactive: 0.204,inactive: -0.062,,inactive: -0.116
CSRP3 (UniProt P50461),inactive: 0.086,inactive: -0.072,inactive: -0.203,inactive: 0.039,inactive: -0.061,inactive: -0.053,inactive: 0.025,inactive: 0.027,inactive: 0.095,inactive: -0.018,inactive: 0.078,inactive: 0.04,inactive: -0.242,inactive: -0.014,inactive: -0.094,,inactive: 0.02,inactive: 0.067,,inactive: 0.071
DCAF13 (UniProt Q9NV06),inactive: -0.085,inactive: -0.172,inactive: 0.079,inactive: -0.114,inactive: -0.034,inactive: -0.047,inactive: 0.044,inactive: -0.094,inactive: -0.079,inactive: 0.101,inactive: 0.077,inactive: -0.078,inactive: 0.165,inactive: 0.263,inactive: -0.33,inactive: -0.441,inactive: -0.05,inactive: 0.019,inactive: 0.032,
CUX1 isoform 2 (UniProt Q13948),inactive: -0.025,inactive: 0.017,inactive: 0.036,inactive: 0.014,inactive: -0.043,inactive: 0.009,inactive: -0.009,inactive: -0.031,inactive: 0.042,inactive: -0.032,inactive: 0.036,inactive: 0.045,inactive: 0.042,inactive: 0.055,inactive: 0.049,inactive: 0.012,inactive: -0.031,inactive: 0.017,inactive: -0.101,
DBR1 (UniProt Q9UK59),inactive: 0.031,inactive: 0.042,inactive: 0.025,inactive: -0.033,inactive: 0.069,inactive: 0.006,inactive: -0.026,inactive: 0.044,inactive: -0.04,inactive: -0.043,inactive: 0.037,inactive: 0.032,inactive: -0.026,inactive: -0.012,inactive: 0.114,inactive: -0.052,inactive: 0.002,inactive: 0.02,inactive: 0.006,
CTSC (UniProt P53634),inactive: -0.002,inactive: 0.016,inactive: -0.031,inactive: 0.014,inactive: 0.028,inactive: 0.009,inactive: -0.02,inactive: 0.138,inactive: 0.008,inactive: -0.003,inactive: -0.034,inactive: -0.061,inactive: 0.015,inactive: -0.031,inactive: -0.038,inactive: 0.022,inactive: 0.004,inactive: 0.011,inactive: 0.016,
DCTN5 (UniProt Q9BTE1),inactive: 0.02,inactive: -0.01,inactive: 0.021,inactive: 0.025,inactive: -0.04,inactive: -0.021,inactive: -0.023,inactive: 0.038,inactive: -0.041,inactive: -0.016,inactive: -0.032,inactive: -0.038,inactive: 0.072,inactive: -0.006,inactive: 0.02,,inactive: 0.006,inactive: 0.026,,inactive: -0.01
CUTA isoform 2 (UniProt O60888),inactive: -0.01,inactive: -0.066,inactive: 0.033,inactive: 0,inactive: 0.091,inactive: -0.054,inactive: -0.1,inactive: -0.105,inactive: 0.074,inactive: 0.085,inactive: -0.046,inactive: 0.038,inactive: -0.09,inactive: -0.009,inactive: 0.15,inactive: 0,inactive: 0.003,inactive: -0.018,inactive: -0.104,

# Three entries from above, as tab-separated lines:
Target	log2 fold change (erlotinib)	log2 fold change [1]	log2 fold change [2]	log2 fold change [3]	log2 fold change [4]	log2 fold change [5]	log2 fold change [6]	log2 fold change [7]	log2 fold change (IRAK-1-4 Inhibitor I)	log2 fold change [8]	log2 fold change (ralimetinib)	log2 fold change [9]	log2 fold change [10]	log2 fold change (pinometostat)	log2 fold change [11]	log2 fold change [12]	log2 fold change [13]	log2 fold change (ibrutinib)	log2 fold change [14]	log2 fold change [15]
CWC27 (UniProt Q6UX04)	inactive: 0.084	inactive: -0.023	inactive: -0.049	inactive: 0.021	inactive: 0.041	inactive: -0.102	inactive: -0.086	inactive: -0.053	inactive: -0.045	inactive: -0.133	inactive: 0.048	inactive: 0.018	inactive: -0.007	inactive: -0.023	inactive: 0.199	inactive: 0.055	inactive: 0.02	inactive: -0.111	inactive: -0.08	
DCAF10 (UniProt Q5QP82)	inactive: 0.01	inactive: 0.014	inactive: 0.029	inactive: -0.038	inactive: -0.077	inactive: -0.013	inactive: 0.029	inactive: 0.006	inactive: 0	inactive: -0.006	inactive: -0.082	inactive: 0.02	inactive: 0.026	inactive: -0.016	inactive: 0.01	inactive: 0.021	inactive: 0.064	inactive: 0	inactive: -0.041	
CSTF2 (UniProt P33240)	inactive: 0.032	inactive: -0.002	inactive: 0.017	inactive: 0.017	inactive: -0.076	inactive: 0.023	inactive: 0.033	inactive: -0.061	inactive: 0.011	inactive: 0.057	inactive: -0.006	inactive: 0.093	inactive: -0.006	inactive: -0.008	inactive: 0.169	inactive: -0.011	inactive: 0.051	inactive: 0.008	inactive: 0.025	
